Assay [1] has as its target GST-E-cadherin-cytoplasmic domain (cd) (human) (UniProt P12830). Put plainly: pull-down; 100 ng purified β-catenin with 0.5 μg purified GST or GST-E-cadherin-cd in PBS, 4°C 1.5 h; glutathione agarose beads, washed three times in PBS with 1% Triton; blot for β-catenin; both purified.
Assay [2] addresses GST-E-cadherin-cytoplasmic domain (cd) T790E (human) (UniProt P12830). The assay is described as above.

Chains of the proteins cited; added tags and fusions are not shown. Lines headed by an entry give the natural chain unless they say otherwise; changes in a name come on top. A line that says so, or that is headed by a name, gives the form on record, which may keep a tag or linker. Residues count along the entry.
GST-E-cadherin-cytoplasmic domain (cd) (P12830, residues 734-882): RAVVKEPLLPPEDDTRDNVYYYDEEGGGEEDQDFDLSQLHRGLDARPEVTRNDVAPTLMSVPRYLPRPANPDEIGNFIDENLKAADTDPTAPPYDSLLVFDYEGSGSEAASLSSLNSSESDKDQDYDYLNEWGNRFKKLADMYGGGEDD
GST-E-cadherin-cytoplasmic domain (cd) T790E (P12830, form named): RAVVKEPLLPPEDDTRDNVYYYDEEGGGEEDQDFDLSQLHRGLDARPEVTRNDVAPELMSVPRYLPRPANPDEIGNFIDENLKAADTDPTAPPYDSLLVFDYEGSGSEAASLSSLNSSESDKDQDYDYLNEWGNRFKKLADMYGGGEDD
UniProt P35222: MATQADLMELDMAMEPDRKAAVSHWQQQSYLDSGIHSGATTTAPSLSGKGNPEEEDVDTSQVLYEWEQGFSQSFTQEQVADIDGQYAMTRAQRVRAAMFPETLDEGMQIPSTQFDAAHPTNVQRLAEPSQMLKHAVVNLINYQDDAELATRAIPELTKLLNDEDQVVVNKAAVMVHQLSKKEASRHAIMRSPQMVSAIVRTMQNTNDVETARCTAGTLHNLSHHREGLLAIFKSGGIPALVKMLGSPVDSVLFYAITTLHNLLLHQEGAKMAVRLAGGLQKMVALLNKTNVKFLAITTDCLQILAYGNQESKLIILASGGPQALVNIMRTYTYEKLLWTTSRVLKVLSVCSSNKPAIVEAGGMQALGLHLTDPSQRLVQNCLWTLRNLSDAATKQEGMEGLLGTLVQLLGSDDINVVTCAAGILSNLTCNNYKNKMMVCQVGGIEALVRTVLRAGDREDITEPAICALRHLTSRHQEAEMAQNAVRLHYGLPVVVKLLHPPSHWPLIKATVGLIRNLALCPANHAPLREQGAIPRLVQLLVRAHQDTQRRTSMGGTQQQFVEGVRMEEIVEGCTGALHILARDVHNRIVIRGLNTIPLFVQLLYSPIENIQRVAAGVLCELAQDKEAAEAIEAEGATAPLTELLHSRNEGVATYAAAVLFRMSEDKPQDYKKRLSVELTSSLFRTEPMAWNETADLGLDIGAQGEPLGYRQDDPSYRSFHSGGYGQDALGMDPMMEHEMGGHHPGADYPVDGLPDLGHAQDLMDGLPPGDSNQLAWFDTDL

Results on one substance are retold here after PMC5095074 (2016).

These are yes or no findings as the source states them, for the method shown. Some binding calls cover weakened binding; strength is not graded here.

Regarding “Purified β-catenin (from UniProt P35222 1-781)”, the binding entry in assay [1] and in assay [2] was “binds” throughout.
